Results are given in words; binding and its absence hold for the method and conditions named. Some entries that bind do so weakly or less than the wild type. Each block holds one binder with its values, some of them ahead of it.
Molecular target: cynomolgus monkey EGFR (cynomolgus monkey)
Assay: SPR Biacore 37 C

binding: binds
B1: AMX-525 (bispecific antibody)
chain: ASSATPESGPGTSTEPSEGSAPGTSESATPESGPGSGPGTSESATPGTSESATPESGPGSEPATSGSETPGTSESATPESGPGTSTEPSEGSAPGSPAGSPTSTEEGTSESATPESGPGSEPATSGSETPGTSESATPESGPGSPAGSPTSTEEGSPAGSPTSTEEGTSTEPSEGSAPGTSESATPESGPGTSESATPESGPGTSESATPESGPGSEPATSGSETPGSEPATSGSETPGSPAGSPTSTEEGTSTEPSEGSAPGTSTEPSEGSAPGSEPATSGSETPGTSESATPEAGRSASHTPAGLTGPGTSESATPESDIQMTQSPSSLSASVGDRVTITCQASQDISNYLNWYQQKPGKAPKLLIYDASNLETGVPSRFSGSGSGTDFTFTISSLQPEDIATYYCQHFDHLPLAFGQGTKVEIKSESATPESGPGTSPGATPESGPGTSESATPQVQLQESGPGLVKPSETLSLTCTVSGGSVSSGDYYWTWIRQPPGKGLEWIGHIYYSGNTNYNPSLKSRVTISVDTSKNQFSLKLSSVTAADTAVYYCARDRVTGAFDIWGQGTLVTVSSGGGGSELVVTQEPSLTVSPGGTVTLTCRSSNGAVTSSNYANWVQQKPGQAPRGLIGGTNKRAPGTPARFSGSLLEGKAALTLSGVQPEDEAVYYCALWYPNLWVFGGGTKLTVLSESATPESGPGTSPGATPESGPGTSESATPEVQLVESGGGIVQPGGSLRLSCAASGFTFSTYAMNWVRQAPGKGLEWVGRIRTKRNDYATYYADSVKGRFTISRDDSKNTLYLQMNSLKTEDTAVYYCVRHENFGNSYVSWFAHWGQGTLVTVSSGTATPESGPGEAGRSASHTPAGLTGPATPESGPGTSESATPESGPGSPAGSPTSTEEGTSESATPESGPGSEPATSGSETPGTSESATPESGPGTSTEPSEGSAPGTSTEPSEGSAPGTSTEPSEGSAPGTSTEPSEGSAPGTSTEPSEGSAPGTSTEPSEGSAPGSPAGSPTSTEEGTSTEPSEGSAPGTSESATPESGPGSEPATSGSETPGTSESATPESGPGSEPATSGSETPGTSESATPESGPGTSTEPSEGSAPGTSESATPESGPGSPAGSPTSTEEGSPAGSPTSTEEGSPAGSPTSTEEGTSESATPESGPGTSTEPSEGSAPGTSESATPESGPGSEPATSGSETPGTSESATPESGPGSEPATSGSETPGTSESATPESGPGTSTEPSEGSAPGSPAGSPTSTEEGTSESATPESGPGSEPATSGSETPGTSESATPESGPGSPAGSPTSTEEGSPAGSPTSTEEGTSTEPSEGSAPGTSESATPESGPGTSESATPESGPGTSPSATPESGPGSEPATSGSETPGSEPATSGSETPGSPAGSPTSTEEGTSTEPSEGSAPGTSTEPSEGSAPGSEPATSGSETPGTSESAGEPEA
notes: Fully masked paTCE; also called AC4230; EGFR.37/CD3.318 paTCE

binding: binds
B2: AMX-525 (uTCE) (bispecific antibody)
chain: GTSESATPESDIQMTQSPSSLSASVGDRVTITCQASQDISNYLNWYQQKPGKAPKLLIYDASNLETGVPSRFSGSGSGTDFTFTISSLQPEDIATYYCQHFDHLPLAFGQGTKVEIKSESATPESGPGTSPGATPESGPGTSESATPQVQLQESGPGLVKPSETLSLTCTVSGGSVSSGDYYWTWIRQPPGKGLEWIGHIYYSGNTNYNPSLKSRVTISVDTSKNQFSLKLSSVTAADTAVYYCARDRVTGAFDIWGQGTLVTVSSGGGGSELVVTQEPSLTVSPGGTVTLTCRSSNGAVTSSNYANWVQQKPGQAPRGLIGGTNKRAPGTPARFSGSLLEGKAALTLSGVQPEDEAVYYCALWYPNLWVFGGGTKLTVLSESATPESGPGTSPGATPESGPGTSESATPEVQLVESGGGIVQPGGSLRLSCAASGFTFSTYAMNWVRQAPGKGLEWVGRIRTKRNDYATYYADSVKGRFTISRDDSKNTLYLQMNSLKTEDTAVYYCVRHENFGNSYVSWFAHWGQGTLVTVSSGTATPESGPG
notes: Fully unmasked metabolite; also called unmasked AMX-525; not shown: remnant of cleaved RSR-3213
